These are yes or no findings as the source states them, for the method shown. A result given as binding can be weak or reduced; the word gives no strength. For some assays here: Binding seen in cells or lysates may run through a third protein. For some assays here: Sequences can lack the tags named with a protein.

Protein sequences, listed by entry. Tags and fused reporters are not part of them. Lines headed by an entry give the natural chain unless they say otherwise; changes in a name come on top.
UniProt O82481: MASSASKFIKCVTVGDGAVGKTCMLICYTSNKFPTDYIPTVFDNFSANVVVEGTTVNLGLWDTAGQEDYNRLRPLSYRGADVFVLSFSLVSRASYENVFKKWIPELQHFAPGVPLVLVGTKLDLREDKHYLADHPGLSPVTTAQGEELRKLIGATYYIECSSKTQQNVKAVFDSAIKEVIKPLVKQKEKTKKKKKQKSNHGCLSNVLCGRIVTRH

The target in test [1] is ROP6 in pGBT9.BS (pGBT ROP6). Briefly: two-hybrid.
For test [2], the target named is ROP10 in pGBT9.BS (pGBT ROP10). The test is described as follows: two-hybrid.
In test [3] the target is YN-rop11^CA (UniProt O82481). Briefly: split reporter.
Test [4] concerns the target YN-ROP6. The test is described as follows: split reporter.
Test [5] deals with YN-ROP10. The test is described as follows: split reporter.

B1: ICR2 in pGAD GH (pGAD-ICR2) (protein, UniProt Q9ZQC5 1-583)
chain: MQTPKPRPGSLEVPQKKSPASTPKTARKLKTSESDPVSSPNTKIRTPKTQSPKVVADRRSPRTPVNEIQKKRTGKTPELASQISQLQEELKKAKEQLSASEALKKEAQDQAEETKQQLMEINASEDSRIDELRKLSQERDKAWQSELEAMQRQHAMDSAALSSTMNEVQKLKAQLSESENVENLRMELNETLSLVEKLRGELFDAKEGEAQAHEIVSGTEKQLEIANLTLEMLRSDGMKMSEACNSLTTELEQSKSEVRSLEQLVRQLEEEDEARGNANGDSSSVEELKEEINVARQEISQLKSAVEVTERRYHEEYIQSTLQIRTAYEQVDEVKSGYAQREAELGEELKKTKAERDSLHERLMDKEAKLRILVDENEILNSKIKEKEEVYLNLENSLNQNEPEDTGELKKLESDVMELRANLMDKEMELQSVMSQYESLRSEMETMQSEKNKAIDEALAKLGSLTEEADKSGKRAENATEQLGAAQVTNTELEAELRRLKVQCDQWRKAAEAAATMLSGGNNNNNSNGKYVERTGSLESPLRRRNVNMSPYMGETDDELSSPKKKNGSMLKKIGVLLKKSQK
Consider B1, for which the binding result in test [1] and in test [2] was “binds” in each case.

B2: ICR2 fused at its carboxy terminus to the C-terminal half of YFP (ICR2-YC) (protein, UniProt Q9ZQC5 56-583)
chain: ADRRSPRTPVNEIQKKRTGKTPELASQISQLQEELKKAKEQLSASEALKKEAQDQAEETKQQLMEINASEDSRIDELRKLSQERDKAWQSELEAMQRQHAMDSAALSSTMNEVQKLKAQLSESENVENLRMELNETLSLVEKLRGELFDAKEGEAQAHEIVSGTEKQLEIANLTLEMLRSDGMKMSEACNSLTTELEQSKSEVRSLEQLVRQLEEEDEARGNANGDSSSVEELKEEINVARQEISQLKSAVEVTERRYHEEYIQSTLQIRTAYEQVDEVKSGYAQREAELGEELKKTKAERDSLHERLMDKEAKLRILVDENEILNSKIKEKEEVYLNLENSLNQNEPEDTGELKKLESDVMELRANLMDKEMELQSVMSQYESLRSEMETMQSEKNKAIDEALAKLGSLTEEADKSGKRAENATEQLGAAQVTNTELEAELRRLKVQCDQWRKAAEAAATMLSGGNNNNNSNGKYVERTGSLESPLRRRNVNMSPYMGETDDELSSPKKKNGSMLKKIGVLLKKSQK
Take B2: the binding result in test [3], in test [4] and in test [5] was “binds” each time.

Source of the values: doi:10.1101/2021.01.08.425872.
